In PubChem BioAssay AID493014 (National Center for Advancing Translational Sciences (NCATS), 2011):
The list shows a part of the results. These are further read-outs of the screen, such as a control signal, another cell line or another target. No call is given for them. Compounds called inactive in the main read-out are mostly missing here. Potencies come from curve fits of mixed quality, noted in brackets.

Assay: qHTS Assay to Find Inhibitors of Chronic Active B-Cell Receptor Signaling
Details: ABC-DLBCL IkBa-CBG/CBR reporter, luminescence ratio (green luciferase fused to IkBa over red control in TMD8 lymphoma cells), 4 h
How it was run: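 Compounds up to 46 uM were incubated four hours with TMD8 cells whose green CBG68 luciferase is fused to IkappaBalpha; red CBR luminescence normalised the signal, and concentration-effect curves were fitted to fusion, red and ratio data.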

[1] = measured here: CBR red luminescence, cell number
[2] = measured here: IkBa-CBG green luminescence

Compound	AC50 [1]	AC50 [2]
O=C(CN1CCCCC1)N/N=C/c1ccccc1OCc1ccccc1	6.51 µM [rising, single point]	
COc1cc(C(C[N+](=O)[O-])c2c(-c3ccccc3)cc3ccccn23)cc(OC)c1OC (configuration not stated)	11.6 µM [falling, partial curve]	
CCOC(=O)C1CCCN(C(c2ccccn2)c2c(C)[nH]c3ccccc23)C1 (configuration not stated)	22.4 µM [falling, single point]	
COc1ccc(C(=O)c2ccc(Cl)c([N+](=O)[O-])c2)cc1		7.31 µM [falling, partial curve]
Cc1ccc(S(=O)(=O)NC(=O)Nc2ccc(N(C)C)cc2)cc1	7.08 µM [falling, partial curve]	
COc1ccc(C)cc1NC(=O)c1ccc(OC(F)F)cc1	0.231 µM [rising, full curve, poor fit]	
CCOC(=O)c1c(NC(=O)CSc2nnc(C)c(=O)[nH]2)sc2c1CCC2	23.1 µM [rising, partial curve, poor fit]	
FCCCOc1ccc(-c2nccc(-c3ccc(F)cc3)n2)cc1	13 µM [rising, single point]	
O=C1c2ccccc2C(=O)N1c1nc(-c2cccs2)cs1	14.6 µM [falling, partial curve]	
CC(=C1C(=O)c2ccccc2C1=O)N1CCN(c2ccc(F)cc2)CC1	22.4 µM [falling, single point]	
CC1CC1C(=O)OCC(=O)NCc1ccccc1Cl (configuration not stated)	25.9 µM [falling, single point]	
O=C(CCN1C(=O)C2C3C=CC(C3)C2C1=O)N1CCN(c2ccccc2F)CC1 (configuration not stated)	6.51 µM [rising, partial curve, poor fit]	
Clc1ccccc1-c1nc(-c2ccncc2)no1	35.5 µM [falling, single point]	
COC(=O)C1=C(C)NC(C)=C(C(=O)OCC2CCCO2)C1c1cccc(Br)c1 (configuration not stated)	25.1 µM [falling, single point]	
C/C(=C\C(=O)OCC(=O)NCc1ccccc1)C(=O)OCC(=O)NCc1ccccc1	6.51 µM [falling, partial curve]	29.1 µM [rising, partial curve, poor fit]
C/C(=N\NC(=O)c1cc(-c2cccc([N+](=O)[O-])c2)n[nH]1)c1ccc(F)cc1	6.31 µM [rising, single point]	
COc1cc(OC)cc(C(=O)NCCn2ccc3ccccc32)c1	5.01 µM [falling, partial curve]	
Cc1ccc(N2CS(=O)(=O)/C(=C/N(C)C)C2=O)cc1	20 µM [rising, single point]	
CN(C(=O)CSc1nnc(C2CC2)n1-c1ccccc1)C1CCS(=O)(=O)C1 (configuration not stated)	2.91 µM [rising, partial curve]	
COCCn1c(=S)[nH]c2cc(C(=O)N3CC(C)CC(C)C3)ccc2c1=O (configuration not stated)	0.112 µM [falling, full curve, poor fit]	

Structural class: the compounds so far with a thiophene ring, fused or not.
Compound	AC50 [1]	AC50 [2]
CCOC(=O)c1c(NC(=O)CSc2nnc(C)c(=O)[nH]2)sc2c1CCC2	23.1 µM [rising, partial curve, poor fit]	
O=C1c2ccccc2C(=O)N1c1nc(-c2cccs2)cs1	14.6 µM [falling, partial curve]	

Continued:

Compound	AC50 [1]	AC50 [2]
COc1ccc(OC)c(CN2CCN(C(=O)c3cccs3)CC2)c1	3.55 µM [rising, partial curve, poor fit]	
COc1ccc(C)cc1NC(=O)CSc1nc(=O)n(Cc2cccnc2)c2c1CCC2	8.91 µM [falling, partial curve, poor fit]	
CC(C)Cc1ccc(/C=C/C(=O)NC2CC2)cc1	4.11 µM [rising, partial curve, poor fit]	
CCOC(=O)c1c(C)nc2sc3c(c2c1-c1ccc(OC)cc1)NC(c1ccc(OC)cc1)NC3=O (configuration not stated)	2.82 µM [rising, partial curve, poor fit]	
CCNC(=O)c1cccc(NC(=O)c2cc(C3CC3)nc3c2cnn3C(C)C)c1	0.731 µM [rising, full curve, poor fit]	
FC(F)(F)c1cccc(Cc2noc(CN3CCC(N4CCCCC4)CC3)n2)c1	0.891 µM [rising, full curve, poor fit]	
O=C(Nc1cc(C(F)(F)F)ccc1-n1cncn1)c1ccc(Cl)cc1	0.00461 µM [rising, full curve, poor fit]	
CC1CCCN(CC(=O)Nc2cc(Cl)ccc2Oc2ccccc2)C1 (configuration not stated)	14.1 µM [rising, single point]	
Cc1cc(C)c(S(=O)(=O)N2CCN(C(=O)c3cc4ccccc4oc3=O)CC2)c(C)c1	25.9 µM [rising, partial curve]	
O=C(CSc1ccccc1)Nc1ccc(S(=O)(=O)NCC2CCCO2)cc1 (configuration not stated)	16.4 µM [falling, single point]	
CC1=CC(c2ccccc2)n2nc(NC(=O)CCCC(=O)O)nc2N1 (configuration not stated)	0.1 µM [rising, full curve, poor fit]	
COCCCNC(=O)c1cc2c(=O)n3cc(C)ccc3nc2nc1NCC1CCCO1 (configuration not stated)	0.103 µM [falling, full curve, poor fit]	
O=C(Cn1nc(C(=O)O)c2ccccc2c1=O)Nc1cccc(S(=O)(=O)N2CCOCC2)c1	14.6 µM [rising, partial curve, poor fit]	
COc1ccccc1C1CCN(C(=S)Nc2ccc(Br)cc2)CC1	2.82 µM [rising, partial curve]	
Cc1nc2ccc(NC(=O)c3cc([N+](=O)[O-])cc([N+](=O)[O-])c3Cl)cc2s1	29.1 µM [falling, single point]	
CCOc1ccc2[nH]c3ncccc3c(=O)c2c1	3.55 µM [falling, partial curve, poor fit]	
Cc1cccc(OCC(=O)Nc2cccc(O)c2)c1	0.517 µM [falling, full curve, poor fit]	
Cc1ccc(C(=O)CN(C(=O)c2ccc(Cl)cc2)N2C(=O)c3ccccc3C2=O)cc1	14.1 µM [rising, single point]	
COc1ccc(COc2cc(-c3cccc(OC)c3)nc3ccc(N)cc23)cc1	2.91 µM [rising, single point]	5.17 µM [falling, full curve]
COC(=O)c1cc(Br)c(=O)n(-c2ccc(C(C)=O)cc2)c1	6.31 µM [rising, partial curve, poor fit]	
